## Percent effect of library compounds

Amino acid sequences for entries named in this document (tags omitted). Residues count along the entry.
UniProt I6X8D2, whole entry: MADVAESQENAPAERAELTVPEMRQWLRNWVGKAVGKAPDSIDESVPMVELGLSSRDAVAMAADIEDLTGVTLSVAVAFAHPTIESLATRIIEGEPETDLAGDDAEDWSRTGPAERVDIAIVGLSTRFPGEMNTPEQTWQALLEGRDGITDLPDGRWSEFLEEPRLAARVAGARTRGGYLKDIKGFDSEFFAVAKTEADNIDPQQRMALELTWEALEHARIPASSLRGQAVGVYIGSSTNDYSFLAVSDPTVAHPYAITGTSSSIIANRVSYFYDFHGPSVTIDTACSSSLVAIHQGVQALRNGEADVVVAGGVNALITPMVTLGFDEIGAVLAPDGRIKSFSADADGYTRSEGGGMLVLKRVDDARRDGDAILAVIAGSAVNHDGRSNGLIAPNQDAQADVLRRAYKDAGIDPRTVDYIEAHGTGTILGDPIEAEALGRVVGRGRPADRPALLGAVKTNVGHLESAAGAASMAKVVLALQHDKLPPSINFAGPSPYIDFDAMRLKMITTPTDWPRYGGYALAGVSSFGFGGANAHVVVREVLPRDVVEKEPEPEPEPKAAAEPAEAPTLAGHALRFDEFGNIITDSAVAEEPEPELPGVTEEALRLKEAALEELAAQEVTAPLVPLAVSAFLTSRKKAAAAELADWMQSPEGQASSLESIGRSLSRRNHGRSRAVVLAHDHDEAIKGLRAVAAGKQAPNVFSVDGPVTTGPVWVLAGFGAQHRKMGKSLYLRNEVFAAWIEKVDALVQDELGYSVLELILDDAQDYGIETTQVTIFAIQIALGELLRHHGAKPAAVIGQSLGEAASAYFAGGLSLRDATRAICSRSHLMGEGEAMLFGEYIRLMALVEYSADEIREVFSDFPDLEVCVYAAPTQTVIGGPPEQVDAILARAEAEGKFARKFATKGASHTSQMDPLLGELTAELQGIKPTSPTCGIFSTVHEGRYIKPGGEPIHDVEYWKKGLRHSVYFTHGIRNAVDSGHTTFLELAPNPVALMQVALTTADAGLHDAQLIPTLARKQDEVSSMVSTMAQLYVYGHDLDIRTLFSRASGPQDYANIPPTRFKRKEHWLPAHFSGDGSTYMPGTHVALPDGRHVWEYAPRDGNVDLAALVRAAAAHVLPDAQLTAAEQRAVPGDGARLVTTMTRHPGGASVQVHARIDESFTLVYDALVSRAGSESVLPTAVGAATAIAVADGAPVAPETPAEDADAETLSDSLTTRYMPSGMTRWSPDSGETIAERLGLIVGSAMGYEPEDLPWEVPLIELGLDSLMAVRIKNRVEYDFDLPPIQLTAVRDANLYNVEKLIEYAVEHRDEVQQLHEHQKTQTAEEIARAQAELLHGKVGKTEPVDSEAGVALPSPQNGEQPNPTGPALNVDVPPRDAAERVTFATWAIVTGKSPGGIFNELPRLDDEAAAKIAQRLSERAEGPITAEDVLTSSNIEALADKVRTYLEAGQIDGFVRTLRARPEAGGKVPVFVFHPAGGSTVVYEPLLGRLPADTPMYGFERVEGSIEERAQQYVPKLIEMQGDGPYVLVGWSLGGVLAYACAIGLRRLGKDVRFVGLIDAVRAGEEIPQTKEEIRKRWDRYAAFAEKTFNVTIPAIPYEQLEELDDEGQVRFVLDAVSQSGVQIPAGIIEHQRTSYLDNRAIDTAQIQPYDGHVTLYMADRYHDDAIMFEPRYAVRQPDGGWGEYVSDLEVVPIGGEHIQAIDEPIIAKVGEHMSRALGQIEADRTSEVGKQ
UniProt P9WFT3, whole entry: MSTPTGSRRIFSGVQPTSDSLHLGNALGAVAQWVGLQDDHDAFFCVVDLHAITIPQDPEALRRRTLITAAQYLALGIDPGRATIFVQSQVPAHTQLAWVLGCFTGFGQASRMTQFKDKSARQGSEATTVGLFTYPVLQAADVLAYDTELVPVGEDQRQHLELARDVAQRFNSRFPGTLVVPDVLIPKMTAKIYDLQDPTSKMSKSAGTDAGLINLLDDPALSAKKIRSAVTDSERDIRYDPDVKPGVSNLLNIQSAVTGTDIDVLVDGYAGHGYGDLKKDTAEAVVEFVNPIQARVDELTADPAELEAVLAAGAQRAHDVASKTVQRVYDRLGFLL
UniProt P9WNZ1, whole entry: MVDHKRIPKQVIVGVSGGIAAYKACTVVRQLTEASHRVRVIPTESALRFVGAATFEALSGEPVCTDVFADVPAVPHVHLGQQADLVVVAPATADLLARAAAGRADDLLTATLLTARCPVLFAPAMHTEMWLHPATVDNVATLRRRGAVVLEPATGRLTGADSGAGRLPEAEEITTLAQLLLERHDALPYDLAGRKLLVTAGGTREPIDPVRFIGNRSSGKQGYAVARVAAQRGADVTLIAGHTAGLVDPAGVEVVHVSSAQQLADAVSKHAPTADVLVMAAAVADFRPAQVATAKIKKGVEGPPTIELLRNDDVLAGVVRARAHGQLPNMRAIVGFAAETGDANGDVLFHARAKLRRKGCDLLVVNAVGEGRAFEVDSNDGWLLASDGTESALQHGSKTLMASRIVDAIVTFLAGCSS
UniProt Q8IDJ8, 1-583: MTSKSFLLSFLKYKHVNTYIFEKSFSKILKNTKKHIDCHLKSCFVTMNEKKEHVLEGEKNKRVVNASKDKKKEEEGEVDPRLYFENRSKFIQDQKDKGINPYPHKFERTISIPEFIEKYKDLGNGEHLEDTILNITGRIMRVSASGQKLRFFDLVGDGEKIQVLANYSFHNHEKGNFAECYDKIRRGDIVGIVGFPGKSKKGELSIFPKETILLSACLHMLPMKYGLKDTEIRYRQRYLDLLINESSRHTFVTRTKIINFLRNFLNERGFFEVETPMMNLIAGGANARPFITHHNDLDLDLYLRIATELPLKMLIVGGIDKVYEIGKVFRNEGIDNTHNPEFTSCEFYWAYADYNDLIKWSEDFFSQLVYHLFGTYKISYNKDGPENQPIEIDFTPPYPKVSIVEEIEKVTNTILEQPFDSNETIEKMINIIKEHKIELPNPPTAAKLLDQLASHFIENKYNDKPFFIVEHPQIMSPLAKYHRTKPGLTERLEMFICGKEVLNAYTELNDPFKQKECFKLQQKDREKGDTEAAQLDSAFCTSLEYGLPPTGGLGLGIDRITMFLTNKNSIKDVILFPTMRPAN

The filed quantity is “Percent Effect” (%).
The controls that fix the scale are not given in the record; negative values are as filed.
Compounds were drawn at random from those tested, without regard to their results.

A: 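Enzyme assay of the thioesterase domain of polyketide synthase 13; the read-out is not stated. Target: Polyketide synthase Pks13, Mycobacterium tuberculosis (UniProt I6X8D2). Tested at 30 µM. Higher reads as stronger inhibition (inferred from which compounds were picked for retests). About 67,000 compounds were tested under these conditions; 0.46% (about 300) showed 50% or more at least once.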
B: 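Tryptophan-tRNA ligase, Mycobacterium tuberculosis (UniProt P9WFT3). Enzyme assay of tryptophanyl-tRNA synthetase; the read-out is not stated. Concentration: 10 µM. Direction is not recorded; retested compounds ran higher, which suggests that high means inhibition. Of about 65,000 compounds tested this way, about 64 (0.098%) reached 50% or more in at least one test.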
C: 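Enzyme assay of CoaBC with a phosphate dye (Biomol Green) read at 650 nm. Target: Coenzyme A biosynthesis protein CoaBC, Mycobacterium tuberculosis (UniProt P9WNZ1). Compounds at 30 µM. Direction is inferred from only a few compounds that gave an IC50; most scored high, so higher reads as stronger inhibition. Most strong results did not repeat in a second test. Of about 67,000 compounds tested this way, about 40 (0.06%) reached 50% or more in at least one test.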
D: 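Lysine-tRNA ligase, Plasmodium falciparum 3D7 (UniProt Q8IDJ8). Enzyme assay of the cytosolic lysyl-tRNA synthetase in 384-well plates, read by luminescence. Compounds at 30 µM. Higher reads as stronger inhibition, judged from the few compounds that gave an IC50. Of about 69,000 compounds tested this way, about 49 (0.071%) reached 50% or more in at least one test.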

COCCN1C(=O)CO[C@@H]2CN(S(=O)(=O)c3ccccc3)C[C@H]21 gave A: 26.95%; B: 6.185%; C: -1.468%; D: 6.091%. With O=C(NC1CCCCC1)c1ccc(COCC(F)(F)F)o1 the screen gave A: 18.12%; B: 0.311%; C: -2.3%; D: -2.758%. Result for Cc1cc(F)cc2c(NCC(C)(C)C(N)=O)c(C#N)cnc12 was A: -5.366%; B: 0.09139%; C: -3.226%; D: 10.62%. CCc1cc(C(=O)N2CC[C@@H](c3ccc4ccccc4c3)[C@H](O)C2)[nH]n1 read A: -3.37%; B: -3.769%; C: 8.28%; D: -0.4357%. OCC(CO)N1CCC(c2nnc(Cn3ccnc3)n2C2CC2)CC1 read A: 13.17%; B: 8.574%; C: -6.21%; D: -2.604%.

With CC(=O)Nc1ccc(CNC(=O)CNCc2sc(C)nc2C)cc1 the screen gave A: -4.773%; B: 1.234%; C: -0.1227%; D: 1.94%. With O=C(CC1CC2(CCN(CC3CC3)CC2)Oc2ccccc21)NC1CC1 (stereo not drawn) the screen gave A: -20.44%; B: -5.959%; C: 5.534%; D: 4.461%. Cc1cc(C)n2c(CCCNS(=O)(=O)c3ccccc3)nnc2n1 read A: 2.307%; B: -3.479%; C: -0.2421%; D: -0.9929%. For COc1cccc(-n2c(C)cc(C(=O)NC(C)(C)C(N)=O)c2C)c1 the result was A: -10.74%; B: -1.032%; C: 5.512%; D: 1.421%. With COc1cc(CCC(C)O)c(OC)c2c1OCO2 (stereo not drawn) the screen gave A: -17.19%; B: -3.819%; C: -0.6729%; D: 4.187%.

NC(=O)c1cc2c(nc1CCOCc1ccccc1)CCC2 gave A: -7.829%; B: -5.482%; C: 1.975%; D: 2.561%. Cc1ccc(CN(C)C(=O)CN2CCCC(Cn3cncn3)C2)cc1 (stereo not drawn) read A: -27.22%; B: 11.75%; C: 0.9558%; D: 0.2075%. Result for CC(C)Cc1nnc(SCC(=O)O)n1-c1ccc(F)cc1F was A: -11.62%; B: 9.185%; C: -1.518%; D: -1.608%. Result for Cc1ccc2nc(C3CCN(CCO)CC3)nn2c1 was A: -9.105%; B: 6.191%; C: -1.396%; D: -3.773%. CCN1CCN(C2CCN(Cc3noc(C4CC4)n3)CC2)C1=O read A: -9.514%; B: -3.668%; C: -1.575%; D: 0.1842%.

With CC(=O)NCC(=O)N1Cc2nc(COCc3csc(C)n3)oc2C1 the screen gave A: -13.76%; B: -2.81%; D: 5.014%. CCOC(=O)N1CCN(CC(=O)Nc2nnc(C)s2)CC1 gave A: -25.68%; B: -5.416%; C: 2.828%; D: 3.047%. For Fc1cc(Cl)cnc1N1CCCC(c2nccn2Cc2ccccn2)C1 (stereo not drawn) the result was A: -11.72%; B: 0.3661%; C: 3.708%; D: 2.549%. With O=C(c1ccc(-c2cccc3c2CCNC3)o1)N1CCCCC1 the screen gave A: -7.899%; B: -4.509%; C: -4.545%; D: 2.448%. NS(=O)(=O)NCc1cc(-c2ccco2)n(CC(F)(F)F)n1 read A: 0.4445%; C: 1.807%; D: 3.957%.

With CC(NC(=O)NCC(C)(C)O)c1ccc(-c2cncnc2)cc1 (stereo not drawn) the screen gave A: -11.07%; B: 10.04%; C: 10.71%; D: 2.1%. COC(=O)c1cccc2nc([C@H]3CCN(CC(C)C)C3)oc12 gave A: -11.51%; B: -0.9916%; C: -1.768%; D: 5.845%. With CN(C)c1ccc2c(c1)CN(C(=O)c1cnccn1)C2c1cnco1 (stereo not drawn) the screen gave A: 22.82%; B: 9.981%; D: -18.03%. COC(=O)c1ccc(NCc2csc(C)n2)cc1Cl read A: 4.169%; B: -17.04%; C: 1.823%; D: 1.63%. Result for O=C1CC2(CCN(c3nncs3)C2)CN1c1ccc2c(c1)OCCO2 (stereo not drawn) was A: -16.13%; B: -1.543%; C: -3.704%; D: 0.7871%.

O=S(=O)(NCC1CCN(c2cnccn2)CC1)C1CC1 read A: -37.9%; B: 16.45%; C: 3.03%; D: -1.529%. Result for CC(=O)N1CCC(c2nc3ccc(C)cn3n2)CC1 was A: -0.02356%; C: 4.485%; D: 4.647%. Cc1cc2nc(SCC(=O)N3CCOCC3)n(CC(C)C)c(=O)c2[nH]1 gave A: -19.47%; B: 1.165%; C: -3.104%; D: 11.69%. With CCCOC1CCCN(c2ccnc(C(=O)NCc3ccco3)c2)C1 (stereo not drawn) the screen gave A: -25.95%; B: -0.6791%; C: 8.78%; D: 2.482%. Result for Cn1c(Cn2ncc(N3CCCCC3)cc2=O)nc2ccccc21 was A: 91.03%; B: 5.951%; C: 11.6%; D: -6.45%.

Repeated from the top, 2 entries:

* COCCN1C(=O)CO[C@@H]2CN(S(=O)(=O)c3ccccc3)C[C@H]21 | A: 26.95%; B: 6.185%; C: -1.468%; D: 6.091%
* O=C(NC1CCCCC1)c1ccc(COCC(F)(F)F)o1 | A: 18.12%; B: 0.311%; C: -2.3%; D: -2.758%

From ChEMBL document CHEMBL3988442, “University of Dundee, Small-Polar-MMV Screening Library” (2021).